Measurements taken from publication PMC3447951.
Results are given in words; binding and its absence hold for the method and conditions named. For some of these results: A result given as binding can be weak or reduced; the word gives no strength. Where a sequence is shown, tags or fusion partners need not be part of it.

T1: HYM1 (two-hybrid fusion) (N. crassa) (UniProt Q1K4S9)
T1 sequence: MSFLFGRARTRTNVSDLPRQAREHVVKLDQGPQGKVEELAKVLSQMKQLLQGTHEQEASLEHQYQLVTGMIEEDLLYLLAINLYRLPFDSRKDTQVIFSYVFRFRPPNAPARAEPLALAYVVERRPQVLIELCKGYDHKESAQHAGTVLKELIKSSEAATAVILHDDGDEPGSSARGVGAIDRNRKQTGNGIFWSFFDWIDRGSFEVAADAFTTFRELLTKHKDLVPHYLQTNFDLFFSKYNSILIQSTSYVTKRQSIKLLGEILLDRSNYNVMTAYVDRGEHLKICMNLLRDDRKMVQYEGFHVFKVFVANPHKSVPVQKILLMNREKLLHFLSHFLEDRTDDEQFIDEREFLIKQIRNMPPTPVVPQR

B1: PAK kinase STE20/NCU03894 (two-hybrid fusion) (enzyme, UniProt Q7RZD3 1-954)
chain: MDGQLSLLSPTSSSSTSHSRKRLTKKQRPPSANHRTSSSFNVESLRIDAQSLDSKRSASSLRQGPNCNQSPSLARTVSVPVSVPSNAPAHTKASDLSLPRSHTTRSQSANRPYNPTQTIPTNRFILSPASSSQPQTQSPPYPSAVASTTVTSSRNKDTSKQYDPLDSCIGSFDQNKLSTDELIGAPFDGNAILSRIEATKLSAAPAPTSTTTIAHSNNISPRRVAPPPPPPPPALSRSNTDSKAARSSKPSKSPKSTISNKTMGASSFRHSASFSSAEQLPPSEKPSKSESSSSSNKRHSGDGKESRVPGMLRKKSGFSGFMNSLVGSPKKPLISAPENPVHVTHVGYDSNTGQFTGLPKEWQRLISESGITEKDRREHPQILVDVLTFYKETTEKPQEDQQLEKFHDARATDFRSPPVTGTAPLVLQTGVGYAHGPMSPMISPPASPRFPQVGHEGSFENPRAPPPVPKGPGPLPAKDINLIPSRPAPKPPAISTRPLVPPASLPAKDSGIGMPPPGDEAPMPYLPPKDNVQHMYQEEHRNRSRSNSRTNGAAPFSPVQASPLHPIATANQTAAYQQQLLQHQQEQAMAQAQAAMSGQLSRAASKRQQPTPPTSQHQHPRQPDINGAPRMPQTQGAAPQASARPRHRPRQSNAIDVVASLKRICSDGDPREIYRGFTKIGQGASGGVYTGHERGSNRLVAIKQMNLEQQPKKDLIINEILVMKESSHPNIVNFIDSYLCAGELWVVMEYMEGGSLTDVVTFNIMTEGQIASVCRETLRGLQHLHSKGVIHRDIKSDNILLSMEGNIKLTDFGFCATINEAQSKRTTMVGTPYWMAPEVVTRKEYGRKVDIWSLGIMAIEMIEGEPPYLTESPLRALWLIATNGTPHIKDEQSLSPVFRDFLYFALKVDPEKRASAHDLLRHDFMNKCVDLSTLAPLVRAAREARAQEKARKGQ

Legend:
[1] = target: T1, HYM1 (two-hybrid fusion) (N. crassa); experiment: two-hybrid; Matchmaker Two-Hybrid system 3 (Clontech); pGBKT7 (GAL4 DNA-binding domain) and pGADT7 (GAL4 activation domain) fusions co-expressed in S. cerevisiae AH109; growth on SD medium lacking adenine, histidine, leucine and tryptophane
[2] = target: NRC1 (two-hybrid fusion) (N. crassa); experiment: as above

| Molecule | binding [1] | binding [2] |
| --- | --- | --- |
| MEK2 (two-hybrid fusion) (N. crassa) (enzyme) | no binding |  |
| NRC1 (two-hybrid fusion) (N. crassa) (enzyme) | no binding |  |
| PAK kinase CLA4/NCU00406 (two-hybrid fusion) (N. crassa) (enzyme) | no binding |  |
| B1 |  | binds |
